According to publication PMC5727398, “Nucleotide– and Mal3-dependent changes in fission yeast microtubules suggest a structural plasticity view of dynamics” (Nature Communications, 2017):
Results are given in words; binding and its absence hold for the method and conditions named. Some results given as binding are weak or reduced against the parent protein; the word gives no strength.

Amino acid sequences for entries named in this document (tags omitted). A change or cut given only in a name is not applied to a line headed by its entry.
UniProt P04688: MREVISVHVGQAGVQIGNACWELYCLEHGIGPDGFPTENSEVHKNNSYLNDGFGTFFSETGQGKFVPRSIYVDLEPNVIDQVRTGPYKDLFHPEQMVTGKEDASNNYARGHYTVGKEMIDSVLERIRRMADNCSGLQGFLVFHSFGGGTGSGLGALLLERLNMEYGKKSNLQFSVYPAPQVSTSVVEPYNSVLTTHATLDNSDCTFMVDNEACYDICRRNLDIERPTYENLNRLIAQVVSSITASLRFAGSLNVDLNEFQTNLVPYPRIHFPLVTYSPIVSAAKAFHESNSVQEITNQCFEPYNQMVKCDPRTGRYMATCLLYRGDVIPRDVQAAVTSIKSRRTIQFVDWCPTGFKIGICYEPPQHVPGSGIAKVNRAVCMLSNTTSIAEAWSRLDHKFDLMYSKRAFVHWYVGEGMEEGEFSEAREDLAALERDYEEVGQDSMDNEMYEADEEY
UniProt P05219: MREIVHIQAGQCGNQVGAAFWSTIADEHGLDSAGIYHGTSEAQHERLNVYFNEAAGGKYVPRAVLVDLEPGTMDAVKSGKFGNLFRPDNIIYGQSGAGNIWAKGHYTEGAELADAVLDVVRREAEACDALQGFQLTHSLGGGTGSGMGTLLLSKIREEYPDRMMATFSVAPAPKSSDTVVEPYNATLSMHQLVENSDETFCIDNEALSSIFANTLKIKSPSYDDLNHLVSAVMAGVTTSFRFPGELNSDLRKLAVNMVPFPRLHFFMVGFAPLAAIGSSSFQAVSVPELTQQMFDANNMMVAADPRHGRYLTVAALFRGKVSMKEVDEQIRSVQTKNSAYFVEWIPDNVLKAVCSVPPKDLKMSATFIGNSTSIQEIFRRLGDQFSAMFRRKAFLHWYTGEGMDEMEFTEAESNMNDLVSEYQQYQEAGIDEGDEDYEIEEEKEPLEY
UniProt Q15691: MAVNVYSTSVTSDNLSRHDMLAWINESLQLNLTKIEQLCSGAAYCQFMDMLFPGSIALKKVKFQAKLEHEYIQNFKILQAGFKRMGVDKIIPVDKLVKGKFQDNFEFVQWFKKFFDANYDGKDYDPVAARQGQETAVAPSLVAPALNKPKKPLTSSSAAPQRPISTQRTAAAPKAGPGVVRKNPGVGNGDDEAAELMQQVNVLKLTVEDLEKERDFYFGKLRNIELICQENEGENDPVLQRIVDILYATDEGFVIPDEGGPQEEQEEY

Target: dynamic microtubules polymerized from unlabeled single-isoform S. pombe tubulin (S. pombe) (UniProt P04688+P05219)
Test: TIRF microscopy; dynamic unlabeled MTs grown from antibody-immobilized GMPCPP pig brain MT seeds; GFP-labelled EB protein in solution; PEM100 pH 6.9 plus 1 mM GTP, with additional KCl (55, 75, 85 mM) in some experiments; 4.5 or 14 uM Sp_tub, 25 uM pig brain tubulin; both purified

binding: binds
Substance: EB1-GFP (from UniProt Q15691 1-268)
